No constants are given. Whether binding was seen depends on the method and setting. Some binding calls cover weakened binding; strength is not graded here.

For test [1], the target named is GLUTAMINE SYNTHASE 2 (GLN2), Arabidopsis thaliana (Arabidopsis thaliana (endogenous in leaves)) (UniProt Q43127). The test can be described thus: native gel or EMSA; 2D: Clear Native PAGE then 12% SDS-PAGE of untreated A. thaliana leaf soluble extract (90 ug protein), SYPRO total protein stain.
The target is the same in test [2]. The test can be described thus: native gel or EMSA; 2D: Clear Native PAGE then 12% SDS-PAGE of A. thaliana leaf soluble extract pre-treated with 0.25% SDS for 60 minutes, SYPRO total protein stain, compared with the untreated sample.

B1: GLUTAMINE SYNTHASE 2 (GLN2), Arabidopsis thaliana (enzyme, UniProt Q43127 46-430)
chain: GFRVLALQSDNSTVNRVETLLNLDTKPYSDRIIAEYIWIGGSGIDLRSKSRTIEKPVEDPSELPKWNYDGSSTGQAPGEDSEVILYPQAIFRDPFRGGNNILVICDTWTPAGEPIPTNKRAKAAEIFSNKKVSGEVPWFGIEQEYTLLQQNVKWPLGWPVGAFPGPQGPYYCGVGADKIWGRDISDAHYKACLYAGINISGTNGEVMPGQWEFQVGPSVGIDAGDHVWCARYLLERITEQAGVVLTLDPKPIEGDWNGAGCHTNYSTKSMREEGGFEVIKKAILNLSLRHKEHISAYGEGNERRLTGKHETASIDQFSWGVANRGCSIRVGRDTEAKGKGYLEDRRPASNMDPYIVTSLLAETTLLWEPTLEAEALAAQKLSLNV
B1: the binding entry is “binds” in test [1] and “no binding (condition: with 0.25% SDS)” in test [2].

Source of the values: publication PMC7367456.
